Measured values published in US4575508A, “2-Substituted 1-(3'-aminoalkyl)-1,2,3,4-tetrahydro-β-carbolines, and their use as antiarrhythmic agents” (BASF Aktiengesellschaft, priority 1982, dated 1986).
At least one structure is not confirmed: it was looked up by name or label, or the drawing left a doubt.

System: aconitine-induced arrhythmia
Assay: Aconitine-induced arrhythmia in rats, oral administration (antiarrhythmic activity)
Type: in vivo, male Sprague-Dawley rats
Conditions: general statement
Method: To investigate the antiarrhythmic activity, the substances were administered orally to male Sprague-Dawley rats each weighing 200-250 g. 45 minutes later, the animals were anesthetized with sodium thiobutabarbital (100 mg/kg, administered intraperitoneally). Aconitine was used as the arrhythmogenic substance, and was infused intravenously 60 minutes after administration of the substance (dosage rate: 0.005 mg per kg per min.). […] The onset of these arrhythmias could be delayed by means of antiarrhythmics, the delay achieved being dose-dependent.
Linear relationships exist between the logarithms of the doses (mg/kg) of the test substances and the relative prolongation of the aconitine infusion duration (Δ%), from which relationships the dose which prolongs the infusion duration by 50% can be determined, as the ED 50%.
The known antiarrhythmic quinidine was used as a comparative substance.

CCCN(CCCC1c2c(c3ccccc3n2C)CCN1C(C)=O)C(C)C (stereo not drawn) [Example 46, 1-[3'-(Isopropylpropyl)-aminopropyl]-2-acetyl-9-methyl-1,2,3,4-tetrahydro-β-carboline]
antiarrhythmic action (in words): particularly active
